Measured values: the supplement of paper PMC12067093, “Discovery and optimisation of a covalent ligand for TRIM25 and its application to targeted protein ubiquitination” (Chemical Science, 2025)
The other results are listed elsewhere or left out.

The chains behind the UniProt entries cited, without tags or fusion partners. Where a name states a change or a piece, a line headed by the entry shows the natural chain unless it says otherwise.
UniProt Q9Y5Y2: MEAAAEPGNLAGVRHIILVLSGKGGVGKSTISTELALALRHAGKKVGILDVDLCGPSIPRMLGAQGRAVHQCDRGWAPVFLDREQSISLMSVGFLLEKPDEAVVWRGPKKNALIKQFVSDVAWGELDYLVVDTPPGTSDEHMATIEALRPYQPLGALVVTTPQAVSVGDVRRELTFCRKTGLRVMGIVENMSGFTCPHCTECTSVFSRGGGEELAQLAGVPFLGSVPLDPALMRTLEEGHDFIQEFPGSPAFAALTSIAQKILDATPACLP
UniProt Q8N1F7: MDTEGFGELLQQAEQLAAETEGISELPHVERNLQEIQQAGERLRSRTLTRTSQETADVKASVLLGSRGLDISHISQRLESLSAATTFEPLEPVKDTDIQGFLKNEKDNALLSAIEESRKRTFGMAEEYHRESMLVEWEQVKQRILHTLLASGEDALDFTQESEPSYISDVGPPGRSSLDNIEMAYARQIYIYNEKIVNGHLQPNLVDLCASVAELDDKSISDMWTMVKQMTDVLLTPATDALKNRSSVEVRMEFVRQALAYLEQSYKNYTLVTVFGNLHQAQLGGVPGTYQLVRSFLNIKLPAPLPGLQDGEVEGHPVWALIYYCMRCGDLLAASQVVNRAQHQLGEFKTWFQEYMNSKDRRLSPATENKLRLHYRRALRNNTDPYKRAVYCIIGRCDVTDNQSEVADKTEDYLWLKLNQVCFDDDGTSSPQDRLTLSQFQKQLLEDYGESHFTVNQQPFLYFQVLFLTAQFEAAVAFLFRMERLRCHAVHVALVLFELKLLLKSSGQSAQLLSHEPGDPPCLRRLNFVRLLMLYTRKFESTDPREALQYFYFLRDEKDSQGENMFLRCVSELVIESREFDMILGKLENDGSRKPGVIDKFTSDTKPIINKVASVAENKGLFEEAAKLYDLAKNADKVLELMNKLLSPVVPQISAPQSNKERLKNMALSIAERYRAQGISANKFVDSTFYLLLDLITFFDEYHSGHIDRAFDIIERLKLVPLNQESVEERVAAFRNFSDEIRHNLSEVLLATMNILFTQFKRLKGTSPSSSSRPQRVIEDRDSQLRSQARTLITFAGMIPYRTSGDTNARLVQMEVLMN
UniProt Q5BJF6: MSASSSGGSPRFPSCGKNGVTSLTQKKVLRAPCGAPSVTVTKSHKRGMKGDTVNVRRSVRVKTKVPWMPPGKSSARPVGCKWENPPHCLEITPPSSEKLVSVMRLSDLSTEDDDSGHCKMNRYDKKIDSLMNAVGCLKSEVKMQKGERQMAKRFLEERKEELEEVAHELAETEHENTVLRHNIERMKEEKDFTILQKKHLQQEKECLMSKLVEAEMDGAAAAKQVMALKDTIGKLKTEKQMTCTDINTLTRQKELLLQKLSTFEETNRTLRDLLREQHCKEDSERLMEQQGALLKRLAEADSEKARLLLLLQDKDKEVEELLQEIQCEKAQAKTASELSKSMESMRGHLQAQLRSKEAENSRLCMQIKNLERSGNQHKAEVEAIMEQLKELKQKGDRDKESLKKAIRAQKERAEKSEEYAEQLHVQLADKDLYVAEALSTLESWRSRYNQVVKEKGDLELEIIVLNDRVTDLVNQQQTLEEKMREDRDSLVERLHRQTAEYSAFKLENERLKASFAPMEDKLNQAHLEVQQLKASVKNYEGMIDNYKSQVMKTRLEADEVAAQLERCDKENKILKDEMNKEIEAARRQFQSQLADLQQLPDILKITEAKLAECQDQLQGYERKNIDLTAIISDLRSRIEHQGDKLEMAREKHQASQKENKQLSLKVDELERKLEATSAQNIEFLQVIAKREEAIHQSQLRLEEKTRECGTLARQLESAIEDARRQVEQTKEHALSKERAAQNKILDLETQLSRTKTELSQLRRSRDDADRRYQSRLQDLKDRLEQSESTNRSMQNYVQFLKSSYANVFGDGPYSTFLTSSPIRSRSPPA
UniProt Q5TFE4: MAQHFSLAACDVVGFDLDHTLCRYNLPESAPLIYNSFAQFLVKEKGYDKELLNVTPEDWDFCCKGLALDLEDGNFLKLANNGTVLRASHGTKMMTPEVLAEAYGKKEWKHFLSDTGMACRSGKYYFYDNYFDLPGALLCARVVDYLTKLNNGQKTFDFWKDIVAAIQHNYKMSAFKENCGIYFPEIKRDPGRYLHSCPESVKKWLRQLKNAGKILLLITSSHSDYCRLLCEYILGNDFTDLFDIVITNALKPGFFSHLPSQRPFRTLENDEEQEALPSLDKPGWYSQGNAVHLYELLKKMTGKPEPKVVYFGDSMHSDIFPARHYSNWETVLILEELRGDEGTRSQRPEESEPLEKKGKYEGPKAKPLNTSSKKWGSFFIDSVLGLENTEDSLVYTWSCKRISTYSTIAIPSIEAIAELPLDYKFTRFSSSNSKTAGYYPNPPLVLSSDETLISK
UniProt P49790, whole entry, looked up: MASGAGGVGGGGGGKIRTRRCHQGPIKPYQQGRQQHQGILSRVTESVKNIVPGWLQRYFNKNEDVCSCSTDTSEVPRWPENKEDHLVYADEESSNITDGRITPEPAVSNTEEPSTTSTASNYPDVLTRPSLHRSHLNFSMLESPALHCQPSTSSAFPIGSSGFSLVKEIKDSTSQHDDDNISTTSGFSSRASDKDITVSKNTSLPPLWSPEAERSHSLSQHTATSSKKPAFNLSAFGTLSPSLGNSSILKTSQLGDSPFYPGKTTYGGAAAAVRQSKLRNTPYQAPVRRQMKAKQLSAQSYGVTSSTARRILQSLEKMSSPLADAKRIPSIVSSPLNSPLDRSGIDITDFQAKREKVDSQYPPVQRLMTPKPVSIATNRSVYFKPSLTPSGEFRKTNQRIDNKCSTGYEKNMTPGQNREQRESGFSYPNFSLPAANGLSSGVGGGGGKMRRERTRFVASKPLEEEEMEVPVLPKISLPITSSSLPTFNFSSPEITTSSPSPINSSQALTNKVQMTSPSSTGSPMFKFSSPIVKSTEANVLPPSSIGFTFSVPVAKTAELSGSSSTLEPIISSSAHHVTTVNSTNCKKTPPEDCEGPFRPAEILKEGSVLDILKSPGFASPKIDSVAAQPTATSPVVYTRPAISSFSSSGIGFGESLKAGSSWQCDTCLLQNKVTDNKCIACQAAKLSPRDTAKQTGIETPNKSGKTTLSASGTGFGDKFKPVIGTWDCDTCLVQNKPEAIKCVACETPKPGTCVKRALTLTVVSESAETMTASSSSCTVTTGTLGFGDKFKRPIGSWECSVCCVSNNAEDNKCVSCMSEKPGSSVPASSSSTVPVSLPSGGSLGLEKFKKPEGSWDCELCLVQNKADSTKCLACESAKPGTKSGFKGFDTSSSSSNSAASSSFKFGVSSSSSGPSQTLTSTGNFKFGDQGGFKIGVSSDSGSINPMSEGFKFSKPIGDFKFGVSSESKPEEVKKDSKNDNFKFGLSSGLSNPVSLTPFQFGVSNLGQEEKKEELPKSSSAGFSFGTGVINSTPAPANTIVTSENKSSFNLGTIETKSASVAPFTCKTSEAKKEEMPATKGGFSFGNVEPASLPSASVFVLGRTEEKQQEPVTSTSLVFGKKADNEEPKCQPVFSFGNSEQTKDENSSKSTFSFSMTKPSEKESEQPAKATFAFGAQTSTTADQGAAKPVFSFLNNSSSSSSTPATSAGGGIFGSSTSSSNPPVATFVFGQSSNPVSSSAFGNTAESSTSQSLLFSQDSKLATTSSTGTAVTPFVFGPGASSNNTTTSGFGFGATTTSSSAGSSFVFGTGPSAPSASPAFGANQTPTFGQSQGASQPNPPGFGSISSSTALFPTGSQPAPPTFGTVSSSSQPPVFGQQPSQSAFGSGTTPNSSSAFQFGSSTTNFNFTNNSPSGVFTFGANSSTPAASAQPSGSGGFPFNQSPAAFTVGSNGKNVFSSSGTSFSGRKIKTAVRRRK
UniProt Q9Y266: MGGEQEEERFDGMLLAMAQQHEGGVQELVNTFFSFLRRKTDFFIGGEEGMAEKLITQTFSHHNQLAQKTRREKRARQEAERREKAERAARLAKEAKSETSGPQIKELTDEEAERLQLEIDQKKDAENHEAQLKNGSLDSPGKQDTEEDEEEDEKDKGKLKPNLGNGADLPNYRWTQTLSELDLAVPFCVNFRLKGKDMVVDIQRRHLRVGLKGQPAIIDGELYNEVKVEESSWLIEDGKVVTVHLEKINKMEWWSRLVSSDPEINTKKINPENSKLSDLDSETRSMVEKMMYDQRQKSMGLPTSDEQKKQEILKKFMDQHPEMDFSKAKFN
UniProt Q9Y5A7: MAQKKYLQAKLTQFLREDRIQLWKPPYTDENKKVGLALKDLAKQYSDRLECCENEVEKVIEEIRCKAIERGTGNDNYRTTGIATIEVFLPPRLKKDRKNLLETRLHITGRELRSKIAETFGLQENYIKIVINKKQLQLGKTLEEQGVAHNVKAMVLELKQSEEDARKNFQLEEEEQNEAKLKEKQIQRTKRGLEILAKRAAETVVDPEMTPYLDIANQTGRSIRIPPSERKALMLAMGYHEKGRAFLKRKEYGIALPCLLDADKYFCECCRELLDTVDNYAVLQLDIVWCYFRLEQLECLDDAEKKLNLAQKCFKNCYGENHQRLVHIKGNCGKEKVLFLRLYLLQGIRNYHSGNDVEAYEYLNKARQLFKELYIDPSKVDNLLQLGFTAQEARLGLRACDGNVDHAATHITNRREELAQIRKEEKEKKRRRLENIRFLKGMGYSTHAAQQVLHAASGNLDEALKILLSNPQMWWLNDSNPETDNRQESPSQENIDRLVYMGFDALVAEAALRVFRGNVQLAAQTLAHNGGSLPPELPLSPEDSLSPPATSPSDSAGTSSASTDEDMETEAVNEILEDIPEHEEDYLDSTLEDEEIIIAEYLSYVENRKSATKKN
UniProt Q8N543: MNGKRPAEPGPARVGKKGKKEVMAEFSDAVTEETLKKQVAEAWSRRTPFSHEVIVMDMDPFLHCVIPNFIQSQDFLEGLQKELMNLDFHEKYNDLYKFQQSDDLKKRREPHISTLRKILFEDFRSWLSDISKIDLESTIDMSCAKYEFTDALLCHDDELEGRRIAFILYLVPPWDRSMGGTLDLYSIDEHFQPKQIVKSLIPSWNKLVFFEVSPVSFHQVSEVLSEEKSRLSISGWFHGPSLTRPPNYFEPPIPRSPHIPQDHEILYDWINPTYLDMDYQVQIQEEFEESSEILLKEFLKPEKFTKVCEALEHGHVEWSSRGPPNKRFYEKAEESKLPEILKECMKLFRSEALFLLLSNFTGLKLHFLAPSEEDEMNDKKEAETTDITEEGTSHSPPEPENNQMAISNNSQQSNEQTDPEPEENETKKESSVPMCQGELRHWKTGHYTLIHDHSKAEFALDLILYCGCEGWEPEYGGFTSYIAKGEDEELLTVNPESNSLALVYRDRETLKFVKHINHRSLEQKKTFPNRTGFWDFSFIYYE
UniProt O15381: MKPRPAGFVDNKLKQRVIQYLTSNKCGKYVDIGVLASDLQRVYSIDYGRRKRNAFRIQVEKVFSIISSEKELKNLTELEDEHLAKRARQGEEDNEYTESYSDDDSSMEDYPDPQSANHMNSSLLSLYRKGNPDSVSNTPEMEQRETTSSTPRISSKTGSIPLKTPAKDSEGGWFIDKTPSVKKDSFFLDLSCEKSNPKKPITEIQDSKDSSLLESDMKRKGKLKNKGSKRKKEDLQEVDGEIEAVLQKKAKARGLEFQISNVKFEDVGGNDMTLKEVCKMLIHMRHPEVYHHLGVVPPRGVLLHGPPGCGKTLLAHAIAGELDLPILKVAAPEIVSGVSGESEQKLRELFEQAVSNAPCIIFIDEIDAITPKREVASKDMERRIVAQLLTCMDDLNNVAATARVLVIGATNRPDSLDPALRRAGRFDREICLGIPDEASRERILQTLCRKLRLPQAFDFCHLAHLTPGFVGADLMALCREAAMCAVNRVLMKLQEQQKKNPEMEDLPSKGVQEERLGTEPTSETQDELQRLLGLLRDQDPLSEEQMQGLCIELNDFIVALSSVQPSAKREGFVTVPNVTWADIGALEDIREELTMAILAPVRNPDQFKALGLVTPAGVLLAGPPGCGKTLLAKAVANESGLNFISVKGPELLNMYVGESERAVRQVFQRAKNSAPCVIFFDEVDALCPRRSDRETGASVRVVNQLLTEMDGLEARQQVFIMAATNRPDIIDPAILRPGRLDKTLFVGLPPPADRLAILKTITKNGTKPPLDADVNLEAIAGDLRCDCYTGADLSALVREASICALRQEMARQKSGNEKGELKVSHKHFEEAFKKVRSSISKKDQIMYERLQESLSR
UniProt Q96E22: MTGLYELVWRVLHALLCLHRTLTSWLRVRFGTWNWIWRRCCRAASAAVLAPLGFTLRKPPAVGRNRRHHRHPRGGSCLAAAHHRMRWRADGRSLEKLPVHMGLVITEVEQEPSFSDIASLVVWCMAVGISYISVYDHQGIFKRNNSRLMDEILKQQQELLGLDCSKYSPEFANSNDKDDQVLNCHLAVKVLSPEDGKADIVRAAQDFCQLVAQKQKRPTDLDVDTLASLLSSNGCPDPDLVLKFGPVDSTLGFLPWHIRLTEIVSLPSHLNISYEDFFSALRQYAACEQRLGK

compound: CC1Cc2ccccc2N1C(=O)C1CCCN(C1)C(=O)CCl (mixture of isomers) [TRIM25 ligand 11 (diastereomer mixture)]; test: probe-labelled cysteine peptide fold change vs DMSO (competition) (log2 fold change); higher = less target engagement (more negative = stronger competition); conditions: 10 µM; THP-1; incubation time: 4 h
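Also: competitive chemoproteomic profiling in live THP-1 cells with an iodoacetamide desthiobiotin (IA-DTB) probe, comparing probe-labelled peptide intensities in compound-treated cells against DMSO-treated controls.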

Target	probe-labelled cysteine peptide fold change
NUP50_Q9UKX7_151_ACVGNAYHK (UniProt Q9UKX7)	-0.156
NUBP2_Q9Y5Y2_202_VMGIVENMSGFTCPHCTECTSVFSR (UniProt Q9Y5Y2)	0.32
NUP93_Q8N1F7_209_IVNGHLQPNLVDLCASVAELDDK (UniProt Q8N1F7)	0.069
ODF2_Q5BJF6_327_DKEVEELLQEIQCEK (UniProt Q5BJF6)	-0.038
NUP155_O75694_548+551_LHQEDQACATCLILACSTAACDR (UniProt O75694)	0.0303
NT5DC1_Q5TFE4_179_ENCGIYFPEIK (UniProt Q5TFE4)	-0.13
NUP153_P49790_1065_SASVAPFTCK (UniProt P49790)	-0.0674
NUDC_Q9Y266_188_WTQTLSELDLAVPFCVNFR (UniProt Q9Y266)	-0.0574
ODF2_Q5BJF6_364_LCMQIK (UniProt Q5BJF6)	-0.0478
OBSL1_O75147_209_LPDSGVYVCHAR (UniProt O75147)	-0.0379
NUB1_Q9Y5A7_400_ACDGNVDHAATHITNR (UniProt Q9Y5A7)	0.204
OARD1_Q9Y530_38_TDSLAHCISEDCR (UniProt Q9Y530)	0.11
OGFOD1_Q8N543_154_YEFTDALLCHDDELEGRR (UniProt Q8N543)	0.0585
NVL_O15381_460_LPQAFDFCHLAHLTPGFVGADLMALCR (UniProt O15381)	-0.219
NUDT3_O95989_68_EVCEEAGVK (UniProt O95989)	-0.0889
NUB1_Q9Y5A7_400_ACDGNVDHAATHITNRR (UniProt Q9Y5A7)	-0.102
NUP133_Q8WUM0_530_AAFLQYCR (UniProt Q8WUM0)	0.0754
NUP93_Q8N1F7_328_CGDLLAASQVVNR (UniProt Q8N1F7)	0.0268

Target	probe-labelled cysteine peptide fold change
NUP155_O75694_356_SVFKPIVQIAVIENSESLDCQLLAVTHAGVR (UniProt O75694)	0.122
NUS1_Q96E22_164_QQQELLGLDCSK (UniProt Q96E22)	0.279
NT5DC1_Q5TFE4_119_HFLSDTGMACR (UniProt Q5TFE4)	-0.0403
OAT_P04181_93_YFDFLSSYSAVNQGHCHPK (UniProt P04181)	0.0741
OGFOD1_Q8N543_143_IDLESTIDMSCAK (UniProt Q8N543)	0.216
NUP43_Q8NFH3_365_SLSVNTLDVLGPCLVCGTDAEAIYVTR (UniProt Q8NFH3)	-0.394
ODF2_Q5BJF6_327_EVEELLQEIQCEK (UniProt Q5BJF6)	0.19
NUP153_P49790_874_CLACESAKPGTK (UniProt P49790)	-0.0887
NUP155_O75694_433_GILLMAASENEDNDILWCVNHDTFPFQK (UniProt O75694)	0.296
NUP155_O75694_373_LYFSTCPFR (UniProt O75694)	0.15
NUDCD1_Q96RS6_67_LRDDQYTLEHMHAFGMYNYLHCDSWYQDSVYYIDTLGR (UniProt Q96RS6)	0.223
NUF2_Q9BZD4_377_TVIEDCNK (UniProt Q9BZD4)	0.0266
OGDH_Q02218_956_YPNAELAWCQEEHK (UniProt Q02218)	-0.0561
NUP98_P52948_1027_ADTSQEICSPR (UniProt P52948)	0.0552
NVL_O15381_626_ALGLVTPAGVLLAGPPGCGK (UniProt O15381)	0.11
NUP155_O75694_667_HNGICIYFSR (UniProt O75694)	-0.0348
NUP210_Q8TEM1_962_GVAMVHPLLPGSSTIMIHDLCLVFPAPAK (UniProt Q8TEM1)	0.0835
NUMB_P49757_176_ECGVTATFDASR (UniProt P49757)	-0.00986
